Experimental data published in article PMC6132954.
Where a chain is given by its changes, count along the chain named. These are yes or no findings as the source states them, for the method shown. In cells and extracts the contact can be indirect. Some entries that bind do so weakly or less than the wild type. For some of these results: Where a sequence is shown, tags or fusion partners need not be part of it. One block for each molecule: values may come before it.

By UniProt entry, the sequences of proteins in these tests, tags left out.
UniProt Q8BKJ9: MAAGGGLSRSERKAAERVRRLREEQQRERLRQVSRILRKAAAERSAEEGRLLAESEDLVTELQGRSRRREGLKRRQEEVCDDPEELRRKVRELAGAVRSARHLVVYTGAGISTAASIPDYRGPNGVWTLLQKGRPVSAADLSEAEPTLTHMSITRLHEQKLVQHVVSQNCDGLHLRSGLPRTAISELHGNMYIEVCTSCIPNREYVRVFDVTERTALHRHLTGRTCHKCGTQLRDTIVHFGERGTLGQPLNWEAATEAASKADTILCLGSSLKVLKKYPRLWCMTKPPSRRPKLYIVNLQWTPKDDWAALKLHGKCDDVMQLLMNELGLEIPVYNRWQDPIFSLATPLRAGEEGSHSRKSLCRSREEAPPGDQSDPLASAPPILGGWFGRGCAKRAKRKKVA
UniProt Q9NRC8: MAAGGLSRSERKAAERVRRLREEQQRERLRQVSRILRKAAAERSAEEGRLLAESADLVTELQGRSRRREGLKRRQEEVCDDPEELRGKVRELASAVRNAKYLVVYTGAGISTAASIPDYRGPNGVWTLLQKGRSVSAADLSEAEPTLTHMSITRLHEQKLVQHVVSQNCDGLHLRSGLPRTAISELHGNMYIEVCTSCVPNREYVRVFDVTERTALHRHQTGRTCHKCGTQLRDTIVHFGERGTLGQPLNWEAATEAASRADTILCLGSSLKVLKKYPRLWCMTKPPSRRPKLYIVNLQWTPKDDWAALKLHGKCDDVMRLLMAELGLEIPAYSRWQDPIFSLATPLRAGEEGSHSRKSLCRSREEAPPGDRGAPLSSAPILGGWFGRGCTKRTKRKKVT

Experiments:
[1] = molecular target: T1, endogenous Suv39h1 (primary MEFs) (mouse (endogenous in primary MEFs)) (UniProt O54864); test: co-IP; endogenous proteins in primary MEFs; immunoprecipitation with anti-Suv39h1 antibody (IgG as control), in presence of benzonase 0.15 U/µL; western blot with anti-Sirt7 and anti-Suv39h1
T1 sequence: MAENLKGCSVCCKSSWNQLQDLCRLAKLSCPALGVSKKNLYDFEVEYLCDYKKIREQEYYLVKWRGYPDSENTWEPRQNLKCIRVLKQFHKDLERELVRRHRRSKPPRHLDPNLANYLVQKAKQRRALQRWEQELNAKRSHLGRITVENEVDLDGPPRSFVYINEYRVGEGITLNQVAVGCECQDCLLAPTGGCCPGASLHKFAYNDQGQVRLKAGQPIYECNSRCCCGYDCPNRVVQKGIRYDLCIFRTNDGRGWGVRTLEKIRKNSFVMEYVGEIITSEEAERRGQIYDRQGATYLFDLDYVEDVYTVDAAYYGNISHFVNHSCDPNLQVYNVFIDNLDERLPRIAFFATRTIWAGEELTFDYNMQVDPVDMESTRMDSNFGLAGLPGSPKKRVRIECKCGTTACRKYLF

[2] = molecular target: T2, C-terminal EGFP-tagged mouse Suv39h1 (mouse) (UniProt O54864); test: co-IP; HEK293T co-transfected with EGFP-Suv39h1 and Flag-Sirt7, harvested 48 h post-transfection; immunoprecipitation with anti-EGFP antibody (non-immune IgG as control), in presence of benzonase 0.15 U/µL; western blot
T2 sequence: T1 sequence

[3] = molecular target: T3, Flag-Sirt1 K230R (UniProt Q923E4); test: co-IP; HEK293T transfected with Flag-Sirt1 wild type, K230R or K230Q, 48 h; Flag-tagged proteins isolated (ANTI-FLAG M2 Affinity Gel, elution with FLAG peptide), in presence of benzonase 0.15 U/µL; western blot for endogenous Suv39h1
T3 sequence: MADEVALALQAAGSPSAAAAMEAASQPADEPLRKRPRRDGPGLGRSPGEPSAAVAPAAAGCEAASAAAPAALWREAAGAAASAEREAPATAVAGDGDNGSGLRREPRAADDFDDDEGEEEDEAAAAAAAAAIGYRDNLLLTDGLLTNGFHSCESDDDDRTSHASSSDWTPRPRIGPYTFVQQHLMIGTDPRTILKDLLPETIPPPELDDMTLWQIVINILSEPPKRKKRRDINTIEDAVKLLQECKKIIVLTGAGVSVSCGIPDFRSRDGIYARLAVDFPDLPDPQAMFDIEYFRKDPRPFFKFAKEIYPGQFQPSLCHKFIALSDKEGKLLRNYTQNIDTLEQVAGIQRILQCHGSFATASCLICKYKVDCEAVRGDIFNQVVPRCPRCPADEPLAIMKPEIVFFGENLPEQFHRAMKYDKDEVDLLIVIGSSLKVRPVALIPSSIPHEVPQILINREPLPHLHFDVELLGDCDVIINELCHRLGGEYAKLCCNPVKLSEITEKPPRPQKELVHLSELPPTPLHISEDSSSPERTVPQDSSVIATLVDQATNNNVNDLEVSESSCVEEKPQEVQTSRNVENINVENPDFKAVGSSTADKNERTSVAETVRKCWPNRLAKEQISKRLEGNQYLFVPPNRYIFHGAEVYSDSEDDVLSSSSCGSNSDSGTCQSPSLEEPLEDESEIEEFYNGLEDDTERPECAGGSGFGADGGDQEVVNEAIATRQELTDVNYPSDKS

[4] = molecular target: T4, Flag-Sirt1 K230Q (UniProt Q923E4); test: as above
T4 sequence: T3 sequence with R230Q

- binding [1]: binds
Molecule: endogenous Sirt7 (primary MEFs) (from UniProt Q8BKJ9 1-402)

- binding [2]: binds
Molecule: C-terminal Flag-tagged human Sirt7 (from UniProt Q9NRC8 1-400)

- binding [3]: binds
- binding [4]: binds weakly
B1: endogenous Suv39h1 (HEK293T) (protein, UniProt O43463 1-412)
chain: MAENLKGCSVCCKSSWNQLQDLCRLAKLSCPALGISKRNLYDFEVEYLCDYKKIREQEYYLVKWRGYPDSESTWEPRQNLKCVRILKQFHKDLERELLRRHHRSKTPRHLDPSLANYLVQKAKQRRALRRWEQELNAKRSHLGRITVENEVDLDGPPRAFVYINEYRVGEGITLNQVAVGCECQDCLWAPTGGCCPGASLHKFAYNDQGQVRLRAGLPIYECNSRCRCGYDCPNRVVQKGIRYDLCIFRTDDGRGWGVRTLEKIRKNSFVMEYVGEIITSEEAERRGQIYDRQGATYLFDLDYVEDVYTVDAAYYGNISHFVNHSCDPNLQVYNVFIDNLDERLPRIAFFATRTIRAGEELTFDYNMQVDPVDMESTRMDSNFGLAGLPGSPKKRVRIECKCGTESCRKYLF
